These are yes or no findings as the source states them, for the method shown. Binding calls can cover weak binding; strength is not graded here. For some of these results: Sequences can lack the tags named with a protein. For some of these results: In cells and extracts the contact can be indirect.
T1: Pil1-Ste4-mCherry (WT) (S. pombe) (UniProt P36622)
T1 sequence: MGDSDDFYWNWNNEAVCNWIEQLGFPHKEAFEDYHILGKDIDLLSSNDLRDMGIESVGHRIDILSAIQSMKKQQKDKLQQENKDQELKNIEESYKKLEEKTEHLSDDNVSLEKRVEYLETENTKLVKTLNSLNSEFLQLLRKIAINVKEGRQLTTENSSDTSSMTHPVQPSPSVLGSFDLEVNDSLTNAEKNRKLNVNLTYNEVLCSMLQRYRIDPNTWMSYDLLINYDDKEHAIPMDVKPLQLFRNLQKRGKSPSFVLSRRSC

B1: Gpa1-3xFLAG-mCherry (WT) (protein, UniProt P27584 1-407)
chain: MGCMSSKYADTSGGEVIQKKLSDTQTSNSSTTGSQNARVPVLENWLNIVLRGKPQNVESSGVRVKGNSTSGGNDIKVLLLGAGDSGKTTIMKQMRLLYSPGFSQVVRKQYRVMIFENIISSLCLLLEAMDNSNVSLLPENEKYRAVILRKHTSQPNEPFSPEIYEAVHALTLDTKLRTVQSCGTNLSLLDNFYYYQDHIDRIFDPQYIPSDQDILHCRIKTTGISEETFLLNRHHYRFFDVGGQRSERRKWIHCFENVTALLFLVSLAGYDQCLVEDNSGNQMQEALLLWDSICNSSWFSESAMILFLNKLDLFKRKVHISPIQKHFPDYQEVGSTPTFVQTQCPLADNAVRSGMYYFYLKFESLNRIASRSCYCHFTTATDTSLLQRVMVSVQDTIMSNNLQSLMF
B2: Gpa1^Q244L-3xFLAG-mCherry (GTP-locked) (protein, UniProt P27584 1-407)
chain: MGCMSSKYADTSGGEVIQKKLSDTQTSNSSTTGSQNARVPVLENWLNIVLRGKPQNVESSGVRVKGNSTSGGNDIKVLLLGAGDSGKTTIMKQMRLLYSPGFSQVVRKQYRVMIFENIISSLCLLLEAMDNSNVSLLPENEKYRAVILRKHTSQPNEPFSPEIYEAVHALTLDTKLRTVQSCGTNLSLLDNFYYYQDHIDRIFDPQYIPSDQDILHCRIKTTGISEETFLLNRHHYRFFDVGGLRSERRKWIHCFENVTALLFLVSLAGYDQCLVEDNSGNQMQEALLLWDSICNSSWFSESAMILFLNKLDLFKRKVHISPIQKHFPDYQEVGSTPTFVQTQCPLADNAVRSGMYYFYLKFESLNRIASRSCYCHFTTATDTSLLQRVMVSVQDTIMSNNLQSLMF
B3: Ste4-3xFLAG-mCherry (protein, UniProt P36622 1-264)
chain: MGDSDDFYWNWNNEAVCNWIEQLGFPHKEAFEDYHILGKDIDLLSSNDLRDMGIESVGHRIDILSAIQSMKKQQKDKLQQENKDQELKNIEESYKKLEEKTEHLSDDNVSLEKRVEYLETENTKLVKTLNSLNSEFLQLLRKIAINVKEGRQLTTENSSDTSSMTHPVQPSPSVLGSFDLEVNDSLTNAEKNRKLNVNLTYNEVLCSMLQRYRIDPNTWMSYDLLINYDDKEHAIPMDVKPLQLFRNLQKRGKSPSFVLSRRSC
B4: Byr2-GFP (WT) (enzyme, UniProt P28829 1-659)
chain: MEYYTSKEVAEWLKSIGLEKYIEQFSQNNIEGRHLNHLTLPLLKDLGIENTAKGKQFLKQRDYLREFPRPCILRFIACNGQTRAVQSRGDYQKTLAIALKKFSLEDASKFIVCVSQSSRIKLITEEEFKQICFNSSSPERDRLIIVPKEKPCPSFEDLRRSWEIELAQPAALSSQSSLSPKLSSVLPTSTQKRSVRSNNAKPFESYQRPPSELINSRISDFFPDHQPKLLEKTISNSLRRNLSIRTSQGHNLGNFGQEILPRSSRRARPSELVCPLSSLRISVAEDVNRLPRIDRGFDPPLTVSSTQRISRPPSLQKSITMVGVEPLYQSNGNEKSSKYNVFSESAHGNHQVLSFSPGSSPSFIEQPSPISPTSTTSEDTNTLEEDTDDQSIKWIRGALIGSGSFGQVYLGMNASSGELMAVKQVILDSVSESKDRHAKLLDALAGEIALLQELSHEHIVQYLGSNLNSDHLNIFLEYVPGGSVAGLLTMYGSFEETLVKNFIKQTLKGLEYLHSRGIVHRDIKGANILVDNKGKIKISDFGISKKLELNSTSTKTGGARPSFQGSSFWMAPEVVKQTMHTEKTDIWSLGCLVIEMLTSKHPYPNCDQMQAIFRIGENILPEFPSNISSSAIDFLEKTFAIDCNLRPTASELLSHPFVS

Experiments:
[1] = target: T1, Pil1-Ste4-mCherry (WT) (S. pombe); test: Pil1 co-recruitment assay
[2] = target: Sms1-sfGFP (expressed under nmt41 promoter) (S. pombe); test: co-IP
[3] = target: Sms1 arrestin domain-sfGFP (S. pombe); test: co-IP
[4] = target: Pil1-Ste4^ΔRA-mCherry (S. pombe); test: Pil1 co-recruitment assay

Molecule | binding [1] | binding [2] | also measured
Sms1^ΔSBD-sfGFP (S. pombe) | no binding | – | –
Sms1-sfGFP (expressed under nmt41 promoter) (S. pombe) | binds | – | –
B1 | – | binds | binding [3]: binds
B2 | – | binds | –
B3 | – | binds | –
B4 | – | – | binding [4]: binds
